Assay results from EP4450494A1, “INDOLE DERIVATIVES AS HISTONE DEACETYLASE (HDAC) INHIBITORS FOR THE TREATMENT OF CANCER” (Consejo Superior De Investigaciones Científicas, priority 2023, dated 2024).

Experiments:
Format in all cases: cell-based
[1] = system: U87 glioblastoma cell line; experiment: MTT cell viability dose-response assay in U87; settings: MTT assay after 72 h of treatment
Method: (§1) As a first screening, dose-response assays were done in U87 glioblastoma cell line in order to obtain the IC50 values of the different compounds. Cells were seeded at a density of 1.500 cells/well in 96-well plates, incubated overnight and treated with increasing concentrations of the corresponding compounds. After 72 h of treatment, cell viability was determined by MTT assay. For this, MTT was added to the wells and cells were incubated for 3,5 h at 37 °C and 5% CO2. Then, media was removed and DMSO was added to resuspend the formed crystals. Absorbance at 570 nm was measured using a spectrophotometer, and GraphPad Prism software was used to analyze the results and calculate the IC50 values.

[2] = system: GNS179; experiment: MTT cell viability assay in GNS179; settings: GNS179 (patient-derived); MTT assay after 72 h of treatment
Method: as §1
(§2) First, we tested if the effect of the compound in cell viability was exclusive to U87 cell line or if it was repeated in other glioblastoma cell lines. With this aim, additional MTT assays were carried out following the same protocol in other glioblastoma conventional (U251) and patient-derived (GNS179) cell lines. Moreover, in order to compare the potential of our compound with other pan-inhibitors, MTT assays were also carried out for SAHA. […] Table 1. Comparison of IC50 values of DDI199 and pan-inhibitor SAHA in conventional (U87 and U251) and patient-derived (GNS179) cell lines.

[3] = system: U251; experiment: MTT cell viability assay in U251; settings: Homo sapiens, U-251, MTT assay after 72 h of treatment
Method: as §1, §2

IC50 [1]: 6.76 µM | IC50 [3]: 16 µM
Structure (SMILES): O=C(CCCCCCC(=O)Nc1ccccc1)NO [SAHA, suberoylanilide hydroxamic acid, reference compound]
IC50 [2]: 5.02 µM
